# Laboratory results taken from PubChem BioAssay AID504444 (National Center for Advancing Translational Sciences (NCATS), 2011).
# Out of some 360,000 compounds screened, about 7,500 (2.1%) were called active. Inconclusive means that the source gave no clear call. Such entries were picked first, then a sample of the others. The call rests on the fitted dose curve; in most records, active means well fitted inhibition curve with a large enough effect; inconclusive means small, poorly fitted or top-dose-only effect, or effect the other way; inactive means flat fitted curve, though single readings scatter. A potency beside an inconclusive call is a rough fit, not a confirmed value.
# Assay: Nrf2 qHTS screen for inhibitors; further: nearly all actives have a fitted effect of over 60% in size
# Details: A549 ARE-Fluc reporter, luciferase luminescence, 18-24 h; activity change, negative = inhibition: at 46 µM (top of the series)
# Procedure, shortened: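 A549 ARE_Fluc cells (5000/well, 5% FBS OPTI-MEM) pre-incubated 2 h, then treated with compounds 18-24 h at 37C/5% CO2 in concentration-response. CellTiter-Fluor viability read first; BugLite luciferase luminescence after 15 min at room temperature gives Nrf2 activity.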
# On the % scale 0 is the no-effect control and ±100 the full control effect; potency means the concentration at half of the fitted maximal effect.
SMILES,"activity change, negative = inhibition",Potency
CC1CCN(C(=O)CN2c3ccc(Br)cc3-c3ccccc3S2(=O)=O)CC1,inactive: 24.1%,
COc1cccc(NC(=O)CSc2nnnn2C(C)C)c1,,"inconclusive: 32.6 µM [activator, partial curve, poor fit]"
COc1ccc(C2=NN(C(=O)COc3ncnc4ccccc34)C(c3ccco3)C2)cc1 (stereo not drawn),inactive: 28.3%,
O=C(NCCc1cn2ccccc2n1)c1cc(COc2ccc3ncccc3c2)on1,,active: 16.4 µM
Cc1cccc(C)c1NC(=O)C1CCCN(CCCc2ccccc2)C1 (stereo not drawn),,"inconclusive: 9.2 µM [activator, partial curve, poor fit]"
CC(=O)c1cccc(NC(=O)c2ccc([N+](=O)[O-])o2)c1,,"inconclusive: 32.6 µM [falling, single point]"
COC(=O)c1ccc(C2c3c(-c4ccc(Br)cc4)n[nH]c3C(=O)N2c2ccc(Cl)cc2)cc1 (stereo not drawn),,"inconclusive: 29.1 µM [falling, single point]"
CCOC(=O)c1ccc(NC(=O)CSc2cc(-c3ccccc3)nc(C)n2)cc1,,"inconclusive: 18.4 µM [falling, single point]"
O=C(COC(=O)CCC1CCCC1)Nc1ccc(Cl)cc1F,,"inconclusive: 1.3 µM [activator, full curve, poor fit]"
O=C(NCCN1CCOCC1)C1CCN(c2ncnc3c2sc2cccc(F)c23)CC1,,"inconclusive: 4.11 µM [falling, full curve, poor fit]"
COc1cccc(S(=O)(=O)Nc2ccc3sc(C)nc3c2)c1,,"inconclusive: 23.1 µM [falling, partial curve, poor fit]"
Cc1ccccc1SCCNC(=O)c1ccccc1Br,,"inconclusive: 11.6 µM [activator, partial curve, poor fit]"
COc1ccc(CCn2c(=S)[nH]c(=O)c3nccnc32)cc1OC,,active: 18.4 µM
COCCNC(=O)CN(C(=O)Cn1nnc2ccccc21)c1ccc(C)c(F)c1,,"inconclusive: 25.9 µM [activator, single point]"
CN(C)S(=O)(=O)N(CC(=O)N1CCN(c2ccccc2)CC1)c1ccccc1,,"inconclusive: 0.92 µM [activator, full curve, poor fit]"
Cc1c(C(=O)N2CCCCCC2)c(S(=O)(=O)Nc2ccc(OC(F)(F)F)cc2)c(C)n1C,,"inconclusive: 14.6 µM [falling, single point]"
Nc1ccc2oc(-c3cccs3)nc2c1,,"inconclusive: 2.06 µM [activator, partial curve, poor fit]"
COc1cccc(-c2cc(C(=O)N3CCCCCC3)no2)c1,,"inconclusive: 11.6 µM [activator, partial curve]"
CNc1ncc(C(=O)c2ccc(-c3ccccc3)cc2)s1,,"inconclusive: 1.46 µM [activator, full curve, poor fit]"
Cc1scc(C(=O)N/N=C/c2ccsc2)c1C,,"inconclusive: 2.31 µM [activator, full curve]"
S=C(NCc1ccc2c(c1)OCO2)Nc1ccc2nsnc2c1,,"inconclusive: 23.1 µM [falling, partial curve, poor fit]"
CC(C)CSC1=NSC2=NC(=O)/C(=C\c3ccccc3)C(=N)N12,,"inconclusive: 3.66 µM [activator, full curve]"

SMILES,"activity change, negative = inhibition",Potency
CCCCn1c(N)c(N(CCC(C)C)C(=O)c2ccc([N+](=O)[O-])s2)c(=O)[nH]c1=O,,"inconclusive: 13 µM [falling, partial curve, poor fit]"
CCc1noc(C)c1C(=O)Nc1ccc(C)c(S(=O)(=O)N2CCCCCC2)c1,,"inconclusive: 20.6 µM [falling, single point]"
C=CCN(C(=O)Nc1ccc(OC)cc1)c1nnc(-c2ccncc2)s1,,"inconclusive: 8.2 µM [falling, partial curve]"
CCOc1ccc(S(=O)(=O)N2CCCC(C(=O)N3CCN(c4ccccc4)CC3)C2)cc1 (stereo not drawn),,active: 23.1 µM
COC(=O)c1cccc(NC(=O)c2cc3sccc3n2C)c1,,"inconclusive: 6.51 µM [activator, full curve, poor fit]"
Cc1ccc(NC(=O)c2ccc3c(c2)NC(=O)CS3)nc1,,"inconclusive: 29.1 µM [activator, single point]"
c1ccc2c(c1)ncc1cccn12,inactive: 2.38%,
CCOC(=O)C1CCCN(C(=O)c2cc3c(Cl)nc4ccccc4c3s2)C1 (stereo not drawn),,active: 5.8 µM
Cc1sc2ccccc2[n+]1CCC(C)S(=O)(=O)[O-] (stereo not drawn),inactive: -3.31%,
CC(Oc1ccc(Br)cc1)C(=O)Nc1nc(-c2ccccn2)cs1 (stereo not drawn),,active: 16.4 µM
CCOC(=O)C1CCCCN1S(=O)(=O)c1cc2c(cc1C)NC(=O)CO2 (stereo not drawn),,"inconclusive: 20.6 µM [falling, single point]"
Oc1cccc(/C=N/N(Cc2ccccc2)c2ccccc2)c1,inactive: 13.9%,
CC(C(=O)NCc1ccco1)n1nc(-c2ccccc2)c2cc(Cl)ccc21 (stereo not drawn),,"inconclusive: 16.4 µM [falling, partial curve, poor fit]"
COc1ccc(C(C[N+](=O)[O-])c2c(C)[nH]c3ccccc23)cc1OC (stereo not drawn),,"inconclusive: 32.6 µM [falling, single point]"
O=C(Nc1ccccc1)c1cc2ccc3ccccc3c2s1,,"inconclusive: 2.06 µM [activator, full curve, poor fit]"
CC1=C(C(N)=O)C(c2cccs2)n2nc(-c3cccc(C)c3)nc2N1 (stereo not drawn),inactive: -0.818%,
O=C(Nc1cccc(Cl)c1)C(Cc1ccccc1)n1cccc1 (stereo not drawn),,"inconclusive: 11.6 µM [falling, partial curve]"
Cc1ccc(OCC(=O)N2CCOCC2)cc1C,,"inconclusive: 3.26 µM [activator, partial curve]"
COc1cc2c(cc1OC)CN(C(=O)c1ccc3[nH]c(C)c(C)c3c1)CC2,,"inconclusive: 23.1 µM [falling, single point]"
CCN(CC)S(=O)(=O)c1ccc(NC(=O)C2CCCN(C(=O)c3ccc(Cl)cc3)C2)cc1 (stereo not drawn),,"inconclusive: 29.1 µM [falling, single point]"
Cc1ccc(C)c(N(C)C(=O)CCNC(=O)Cn2cnc3ccccc3c2=O)c1,,"inconclusive: 29.1 µM [falling, single point]"

# Rewritten as tab-separated lines: entries from further up.
SMILES	activity change, negative = inhibition	Potency
C=CCN(C(=O)Nc1ccc(OC)cc1)c1nnc(-c2ccncc2)s1		inconclusive: 8.2 µM [falling, partial curve]
CC(C(=O)NCc1ccco1)n1nc(-c2ccccc2)c2cc(Cl)ccc21 (stereo not drawn)		inconclusive: 16.4 µM [falling, partial curve, poor fit]
